# Experimental data published in patent US9101616B2, “Aryl substituted carboxamide derivatives as calcium or sodium channel blockers” (RaQualia Pharma Inc., priority 2009, dated 2015).
# Some of these results come from one statement about several compounds together.
# Test system: human NaV1.3 or human NaV1.7 channels
# Experiment: NaV1.3 FRET or NaV1.7 FRET Assays (result not assigned to one channel)
# Type: cell-based
# Conditions: which one not given
row,Structure (SMILES),IC50 [µM]
1,"C[C@@H](NC(=O)c1cc2cc(OC(F)(F)F)ccc2n1C)c1ccc(OCC(F)(F)F)cn1 [Example 162, (R)-1-methyl-N-(1-(5-(2,2,2-trifluoroethoxy)pyridin-2-yl)ethyl)-5-(trifluoromethoxy)-1H-indole-2-carboxamide]",≤ 1
2,"C[C@@H](NC(=O)c1ccc(C(C)(C)C)cc1)c1ccc(OCC2CC2)cn1 [Example 184, (R)-4-tert-butyl-N-(1-(5-(cyclopropylmethoxy)pyridin-2-yl)ethyl)benzamide]",≤ 1
3,"C[C@@H](NC(=O)C1CC1c1cc(F)ccc1F)c1ccc(OCC2CC2)cn1 (stereo partly drawn) [Example 196, trans-N-((R)-1-(5-(cyclopropylmethoxy)pyridin-2-yl)ethyl)-2-(2,5-difluorophenyl) cyclopropanecarboxamide]",≤ 1
4,"C[C@@H](NC(=O)C1CC1c1cc2cc(F)ccc2[nH]1)c1ccc(OCC(F)(F)F)nc1 (stereo partly drawn) [Example 210, trans-2-(5-fluoro-1H-indol-2-yl)-N-((R)-1-(6-(2,2,2-trifluoroethoxy)pridin-3-yl)ethyl)cyclopropanecarboxamide]",≤ 1
5,"C[C@@H](NC(=O)c1cccc(Oc2ccccc2)c1)c1ccc(OCC(F)(F)F)nc1 [Example 220, (R)-3-phenoxy-N-(1-(6-(2,2,2-trifluoroethoxy)pyridin-3-yl)ethyl)benzamide]",≤ 1
6,"C[C@@H](NC(=O)c1ccc(C(C)(C)C)cc1)c1ccc(OCc2ccccc2)cn1 [Example 313, (R)-N-(1-(5-(benzyloxy)pyridin-2-yl)ethyl)-4-(tert-butyl)benzamide]",≤ 1
7,"C[C@@H](NC(=O)c1ccc(C(C)(C)C)cc1)c1ccc(OCc2ccccn2)cn1 [Example 314, (R)-4-tert-butyl-N-(1-(5-(pyridin-2-ylmethoxy)pyridin-2-yl)ethyl)benzamide]",≤ 1
8,"COc1ccc([C@@H](C)NC(=O)c2ccc(C(C)(C)C)cc2)nc1 [Example 315, (R)-4-tert-butyl-N-(1-(5-methoxypyridin-2-yl)ethyl)benzamide]",≤ 1
9,"COc1cc(C(=O)NCc2ccc(C(F)(F)F)nc2)ccc1OCc1ccccc1 [Example 329, 4-(benzyloxy)-3-methoxy-N-((6-(trifluoromethyl)pyridin-3-yl)methyl)benzamide]",≤ 1
10,"CC(C)(C)c1ccc(C2CC2C(=O)NC2CCCc3cccnc32)cc1 (stereo not shown) [Example 332, 2-(4-(tert-butyl)phenyl)-N-(5,6,7,8-tetrahydroquinolin-8-yl)cyclopropanecarboxamide]",≤ 1
11,"Cc1ccc(OCC(F)(F)F)c([C@@H](C)NC(=O)COc2ccc(C(F)(F)F)cc2)n1 [Example 333, (R)-N-(1-(6-methyl-3-(2,2,2-trifluoroethoxy)pyridin-2-yl)ethyl)-2-(4-(trifluoromethyl)phenoxy)acetamide]",≤ 1
12,"C[C@H](NC(=O)c1cccc(Oc2ccccc2)c1)c1ccc(OCC(F)(F)F)cn1 [Example 337, (S)-3-phenoxy-N-(1-(5-(2,2,2-trifluoroethoxy)pyridin-2-yl)ethyl)benzamide]",≤ 1
13,"CC(C)c1ccc(C(=O)N[C@@H](C)c2ccc(OCC(F)(F)F)cn2)cc1 [Example 338, (S)-4-isopropyl-N-(1-(5-(2,2,2-trifluoroethoxy)pyridin-2-yl)ethyl)benzamide]",≤ 1
14,"C[C@H](NC(=O)COc1ccccc1C(F)(F)F)c1ccc(OCC(F)(F)F)cn1 [Example 339, (S)-N-(1-(5-(2,2,2-trifluoroethoxy)pyridin-2-yl)ethyl)-2-(2-(trifluoromethyl)phenoxy)acetamide]",≤ 1
15,"C[C@H](NC(=O)COc1ccc(Cl)c(C(F)(F)F)c1)c1ccc(OCC(F)(F)F)cn1 [Example 341, (S)-2-(4-chloro-3-(trifluoromethyl)phenoxy)-N-(1-(5-(2,2,2-trifluoroethoxy)pyridin-2-yl)ethyl)acetamide]",≤ 1
16,"C[C@@H](NC(=O)[C@@H](Cc1ccccc1OC(F)(F)F)NC(=O)OC(C)(C)C)c1ccc(OCC(F)(F)F)cn1 [Example 355, tert-butyl((R)-1-oxo-1-(((R)-1-(5-(2,2,2-trifluoroethoxy)pyridin-2-yl)ethyl)amino)-3-(2-(trifluoromethoxy)phenyl)propan-2-yl)carbamate]",≤ 1
17,"C[C@@H](NC(=O)c1cccc(Oc2ccccc2)c1)c1ccc(OCc2ccccc2)cn1 [Example 359, (R)-N-(1-(5-(benzyloxy)pyridin-2-yl)ethyl)-3-phenoxybenzamide]",≤ 1
18,"Cc1cccc(Cl)c1OCC(=O)N[C@H](C)c1ccc(OCC(F)(F)F)cn1 [Example 386, (R)-2-(2-chloro-6-methylphenoxy)-N-(1-(5-(2,2,2-trifluoroethoxy)pyridin-2-yl)ethyl)acetamide]",≤ 1
19,"COc1cc(C(C)(C)C)ccc1C(=O)NCc1ccc(OCC(F)(F)F)cn1 [Example 396, 4-(tert-butyl)-2-methoxy-N-((5-(2,2,2-trifluoroethoxy)pyridin-2-yl)methyl)benzamide]",≤ 1
20,"CC(C)(C)c1ccc(C(=O)NCc2ccc(OCC(F)(F)F)cn2)cc1 [Example 397, 4-(tert-butyl)-N-((5-(2,2,2-trifluoroethoxy)pyridin-2-yl)methyl)benzamide]",≤ 1
21,"C[C@@H](NC(=O)COc1cccc(OC(F)(F)F)c1)c1ccc(OCC(F)(F)F)cn1 [Example 399, (R)-N-(1-(5-(2,2,2-trifluoroethoxy)pyridin-2-yl)ethyl)-2-(3-(trifluoromethoxy)phenoxy) acetamide]",≤ 1
22,"C[C@@H](NC(=O)COc1cccc(C(F)(F)F)c1)c1ccc(OCC(F)(F)F)cn1 [Example 400, (R)-N-(1-(5-(2,2,2-trifluoroethoxy)pyridin-2-yl)ethyl)-2-(3-(trifluoromethyl)phenoxy)acetamide]",≤ 1
23,"COc1ccc([C@@H](C)NC(=O)c2cc3cc(OC(F)(F)F)ccc3n2C)nc1 [Example 413, (R)-N-(1-(5-methoxypyridin-2-yl)ethyl)-1-methyl-5-(trifluoromethoxy)-1H-indole-2-carboxamide]",≤ 1
24,"C[C@@H](NC(=O)COc1ccc(Cl)cc1)c1cnc(OCC(F)(F)F)cn1 [Example 415, (R)-2-(4-chlorophenoxy)-N-(1-(5-(2,2,2-trifluoroethoxy)pyrazin-2-yl)ethyl)acetamide]",≤ 1
25,"C[C@@H](NC(=O)COc1ccc(C(F)(F)F)cc1)c1cnc(OCC(F)(F)F)cn1 [Example 417, (R)-N-(1-(5-(2,2,2-trifluoroethoxy)pyrazin-2-yl)ethyl)-2-(4-(trifluoromethyl)phenoxy)acetamide]",≤ 1
26,"C[C@@H](NC(=O)c1ccc(F)c(Oc2ccccc2)c1)c1ccc(OCC(F)(F)F)cn1 [Example 419, (R)-4-fluoro-3-phenoxy-N-(1-(5-(2,2,2-trifluoroethoxy)pyridin-2-yl)ethyl)benzamide]",≤ 1
27,"C[C@@H](NC(=O)c1cccc(Oc2ccc(F)cc2)c1)c1ccc(OCC(F)(F)F)cn1 [Example 420, (R)-3-(4-fluorophenoxy)-N-(1-(5-(2,2,2-trifluoroethoxy)pyridin-2-yl)ethyl)benzamide]",≤ 1
28,"C[C@H](c1ccc(OCC(F)(F)F)cn1)N(C)C(=O)c1cc2ccc(F)cc2n1C [Example 424, (R)-6-fluoro-N,1-dimethyl-N-(1-(5-(2,2,2-trifluoroethoxy)pyridin-2-yl)ethyl)-1H-ind ole-2-carboxamide]",≤ 1
